# Results as given in PMC7507497.
# No constants are given. Whether binding was seen depends on the method and setting. Binding seen in cells or lysates may run through a third protein. These calls come from enrichment with a bait or labelling near it, and not all partners need be listed.
# Target: FLAG-tagged AGO1 (human) (UniProt Q9UL18)
# Experiment: affinity purification with mass spectrometry; ex vivo interactors: anti-FLAG M2 IP of FLAG-AGO1 or FLAG-AGO1x from total cell lysates, glycine elution, LC/MS; MDA-MB-231 and HeLa cells
substance,measurement,value
TNRC6B/GW182 (from UniProt Q9UPQ9 1-1833),binding,binds
